In paper PMC9505153:
No constants are given. Whether binding was seen depends on the method and setting. Where a sequence is shown, tags or fusion partners need not be part of it.

Target: T1, mouse H-FABP (heart-type fatty acid-binding protein), recombinant with N-terminal histidine6-tag (mouse), P11404
T1 chain: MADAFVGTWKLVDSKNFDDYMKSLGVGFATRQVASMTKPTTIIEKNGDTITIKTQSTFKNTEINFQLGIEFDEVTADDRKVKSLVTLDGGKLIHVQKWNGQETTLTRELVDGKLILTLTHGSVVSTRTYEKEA
Assay: NMR 15N relaxation (rotational correlation time from R2/R1, molecular weight estimate); 1.0 mM [15N]-labelled protein in 20 mM HEPES, 150 mM NaCl, pH 7.0; 298 K; Bruker 600 MHz; tau-c 10.82 ns, Mw by an empirical equation; both purified
Details: remark: other sources report otherwise

binding: no binding (tested: 1.0 mM)
B1: mouse H-FABP (heart-type fatty acid-binding protein), recombinant with N-terminal histidine6-tag, P11404 1-133 (protein)
chain: T1 chain
